No constants are given. Whether binding was seen depends on the method and setting. Some entries that bind do so weakly or less than the wild type.
How the values were obtained:
[1] = biological target: T1, rat GPCR135 long form (rat); experiment: radio-ligand binding on recombinant cells
T1 sequence: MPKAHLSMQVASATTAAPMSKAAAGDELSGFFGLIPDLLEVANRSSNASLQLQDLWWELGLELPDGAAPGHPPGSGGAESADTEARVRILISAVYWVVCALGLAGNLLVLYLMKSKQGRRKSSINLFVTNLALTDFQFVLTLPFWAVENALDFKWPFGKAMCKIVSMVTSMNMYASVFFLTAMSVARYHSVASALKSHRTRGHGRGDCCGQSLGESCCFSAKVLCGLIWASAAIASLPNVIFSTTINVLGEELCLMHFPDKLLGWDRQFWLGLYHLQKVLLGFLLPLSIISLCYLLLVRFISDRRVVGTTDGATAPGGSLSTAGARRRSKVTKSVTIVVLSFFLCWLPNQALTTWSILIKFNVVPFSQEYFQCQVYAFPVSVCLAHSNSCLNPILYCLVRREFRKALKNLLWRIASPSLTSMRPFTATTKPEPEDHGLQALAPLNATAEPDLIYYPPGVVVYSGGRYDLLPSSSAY

[2] = biological target: T2, rat GPCR135 short form (rat); experiment: radio-ligand binding on recombinant cells
T2 sequence: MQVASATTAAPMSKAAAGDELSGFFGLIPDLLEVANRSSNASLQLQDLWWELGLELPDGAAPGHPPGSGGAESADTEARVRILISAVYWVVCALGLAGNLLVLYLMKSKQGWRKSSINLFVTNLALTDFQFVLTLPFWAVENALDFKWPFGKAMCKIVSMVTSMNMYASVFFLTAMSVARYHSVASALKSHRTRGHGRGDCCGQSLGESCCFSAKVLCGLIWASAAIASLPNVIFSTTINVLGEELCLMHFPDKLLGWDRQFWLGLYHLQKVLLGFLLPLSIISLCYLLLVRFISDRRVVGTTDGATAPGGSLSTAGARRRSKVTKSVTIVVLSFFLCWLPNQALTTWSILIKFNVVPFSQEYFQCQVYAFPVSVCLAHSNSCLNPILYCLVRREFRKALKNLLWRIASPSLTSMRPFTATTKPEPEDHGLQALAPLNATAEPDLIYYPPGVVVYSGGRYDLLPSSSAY

mouse GPCR135 (mouse) [3] = biological target: T3, mouse GPCR135 (mouse) (UniProt Q8BGE9); experiment: radioligand binding on transfected COS-7 cells, with or without 1 uM unlabeled relaxin3 as competitor
T3 sequence: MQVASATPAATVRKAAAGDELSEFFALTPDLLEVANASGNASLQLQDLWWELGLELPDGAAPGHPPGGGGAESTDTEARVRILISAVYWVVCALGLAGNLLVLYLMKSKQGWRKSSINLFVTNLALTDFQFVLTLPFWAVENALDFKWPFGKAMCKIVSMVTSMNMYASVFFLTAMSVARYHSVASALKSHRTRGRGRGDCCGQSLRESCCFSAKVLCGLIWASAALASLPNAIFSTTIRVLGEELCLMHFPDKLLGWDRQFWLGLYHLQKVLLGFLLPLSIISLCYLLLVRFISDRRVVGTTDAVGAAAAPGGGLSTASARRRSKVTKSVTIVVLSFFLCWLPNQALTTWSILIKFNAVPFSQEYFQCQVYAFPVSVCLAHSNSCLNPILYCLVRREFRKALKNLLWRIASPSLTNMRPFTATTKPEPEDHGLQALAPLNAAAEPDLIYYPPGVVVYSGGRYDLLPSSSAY

[4] = biological target: T1, rat GPCR135 long form (rat); experiment: as above
[5] = biological target: T2, rat GPCR135 short form (rat); experiment: as above
mouse GPCR135 (mouse) [6] = biological target: T3, mouse GPCR135 (mouse); experiment: radioligand binding on COS7 cells transfected with mGPCR135, total binding vs competition with unlabeled human relaxin3
[7] = biological target: T1, rat GPCR135 long form (rat); experiment: radioligand binding on COS7 cells transfected with rGPCR135L, total binding vs competition with unlabeled human relaxin3
[8] = biological target: T2, rat GPCR135 short form (rat); experiment: radioligand binding on COS7 cells transfected with rGPCR135s, total binding vs competition with unlabeled human relaxin3

Measured: binding

B1: 125I-labeled human relaxin3 (ligand)
chain 1: DVLAGLSSSCCKWGCSKSEISSLC
chain 2: RAAPYGVRLCGREFIRAVIFTCGGSRW
modifications: 125I label (which chain and residue are labelled is not stated)
binds: all assays above

From patent US20050074814A1, “Relaxin3-GPCR135 complexes and their production and use” (priority 2003, published 2005)
